# Laboratory results: patent US8993552B2, “Compositions and methods for treatment of leukemia” (The Regents of The University of Michigan, priority 2009, dated 2015)
# By UniProt entry, the sequences of proteins in these tests, tags left out.
# UniProt O00255, whole entry: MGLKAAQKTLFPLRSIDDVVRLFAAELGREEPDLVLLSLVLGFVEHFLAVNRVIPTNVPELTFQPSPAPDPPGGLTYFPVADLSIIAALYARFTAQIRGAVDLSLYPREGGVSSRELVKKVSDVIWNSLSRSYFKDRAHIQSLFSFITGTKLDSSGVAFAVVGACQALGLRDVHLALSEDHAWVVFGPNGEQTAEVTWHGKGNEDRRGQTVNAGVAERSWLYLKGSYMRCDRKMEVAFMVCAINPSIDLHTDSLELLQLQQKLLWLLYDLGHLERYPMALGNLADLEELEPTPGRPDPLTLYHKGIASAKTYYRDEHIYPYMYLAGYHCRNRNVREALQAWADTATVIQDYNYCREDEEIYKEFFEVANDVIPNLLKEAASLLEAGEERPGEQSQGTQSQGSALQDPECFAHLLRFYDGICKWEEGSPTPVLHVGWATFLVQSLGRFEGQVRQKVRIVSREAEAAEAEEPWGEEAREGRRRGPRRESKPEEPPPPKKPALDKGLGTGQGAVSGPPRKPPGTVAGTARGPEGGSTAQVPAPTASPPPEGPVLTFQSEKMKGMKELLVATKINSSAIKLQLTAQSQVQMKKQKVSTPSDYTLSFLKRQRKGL
# At least one structure is not confirmed: it was looked up by name or label, or the drawing left a doubt.
# Tests used:
# menin-MLL interaction = menin-MLL interaction (Homo sapiens (Human), UniProt O00255); assay: Fluorescence polarization (FP) competition assay with fluorescein-labeled MLL peptide; type: binding; conditions: in words;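 also: Read-out is fluorescence anisotropy of fluorescein-labeled MLL peptide bound to menin, inhibitors displace the peptide and lower anisotropy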
# [1] = test system: human leukemia cell lines with MLL translocations (MV4;11, ML-2, KOPN-8, Karpas 45); assay: ATP-based luminescence cell viability assay in MLL leukemia cell lines; conditions: in words
# [2] = test system: non-MLL leukemia cell lines (Kasumi-1, ME-1); assay: MTT viability assay in non-MLL leukemia cell lines; type: cell-based, human; conditions: Kasumi-1 (AML1-ETO), ME-1 (CBFβ-SMMHC)
# MV4;11 cells (MLL-AF4) = assay: Annexin V/PI staining flow cytometry; conditions: 25 μM and 50 μM, in words
# THP-1 cells (MLL-AF9) = assay: Annexin V/PI staining flow cytometry; conditions: 25 μM and 50 μM, in words
structure (smiles),measurement,setting,value
CCc1cc2c(N3CCN(c4nnc(CC)s4)CC3)ncnc2s1 [Compound 4],in vitro activity in FP assay relative to parent Compound 1,menin-MLL interaction,comparable to the parent compound
same,growth inhibition of MLL leukemia cells,[1],substantial growth inhibition
same,effect on growth of non-MLL leukemia cell lines,[2],No or very limited effect
same,induction of apoptosis and cell death,MV4;11 cells (MLL-AF4),substantial apoptosis and cell death
same,induction of apoptosis and cell death,THP-1 cells (MLL-AF9),substantial apoptosis and cell death
